Laboratory results: PubChem BioAssay AID1224830 (NIAID, 2016)
Purpose: 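Host factors that control LPS-induced TNF expression in human macrophages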 (primary screen). System: human THP-1 monocytic leukaemia cells, TNF dual-luciferase reporter clone, PMA-differentiated to macrophage-like cells. Knock-down reagent: siRNA pool against human genes, 50 nM. Timing: LPS for 4 h, given about 3 days after siRNA transfection. Conditions: bacterial LPS (TLR4 ligand), 10 ng/ml. Measured: 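TNF firefly reporter luminescence divided by renilla, normalised to the plate median, then turned into a robust z-score for each replicate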. Direction: TNF reporter robust z-score: higher = stronger TNF reporter response to LPS. Active means: 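a well is active when its z-score exceeds 2.8 or falls below -1.5; control wells carry no call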.
Here is an unselected part of about 18,000 reagents. Of all reagents, about 2,900 (16%) got an active call. 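Calls are made per well; low scores hint the gene aids the LPS response, high scores that it dampens it.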 Entries without a mark were called inactive. Repeated entries: four replicate wells of each siRNA pool.

Gene | TNF reporter robust z-score
VPS26C | -0.15
VPS26C | 0.25
VPS26C | -1.13
VPS26C | -0.79
RHOU | -0.14
RHOU | 1.28
RHOU | 0.7
RHOU | -0.11
TTK | -0.73
TTK | -0.61
TTK | -0.19
TTK | -0.88
DEFA3 | 1.9
DEFA3 | 3.69 (active)
DEFA3 | 2.46
DEFA3 | 4.06 (active)
ERCC8 | 0.8
ERCC8 | 1.67
ERCC8 | 1.98
ERCC8 | 3.16 (active)
SLC43A3 | 0.21
SLC43A3 | -0.24
SLC43A3 | -0.83
SLC43A3 | -0.16
GALNT5 | -0.18
GALNT5 | 0.52
GALNT5 | 0.8
GALNT5 | 1.69
DGUOK | -0.31
DGUOK | -0.51
DGUOK | -0.54
DGUOK | 0.45
STX1B | -0.93
STX1B | -1.08
STX1B | -0.95
STX1B | -1.62 (active)
ZFAND3 | -0.94
ZFAND3 | -0.29
ZFAND3 | -1.27
ZFAND3 | -0.08
PGLYRP4 | 3.52 (active)
PGLYRP4 | 1.21
PGLYRP4 | 0.2
PGLYRP4 | 0.43
OR5L1 | 0.25
OR5L1 | -0.3
OR5L1 | -0.05
OR5L1 | 0.18
MS4A2 | -0.46
MS4A2 | 0.51
MS4A2 | 1.77
MS4A2 | 0.74

Next part, starting with the last 2 of the part before.
Gene | TNF reporter robust z-score
MS4A2 | 1.77
MS4A2 | 0.74
FAM193A | -0.98
FAM193A | -0.75
FAM193A | -0.96
FAM193A | -0.24
GABPB2 | 0.52
GABPB2 | 0.57
GABPB2 | 0.7
GABPB2 | 0.07
TEX13B | 1.18
TEX13B | 4.35 (active)
TEX13B | 0.53
TEX13B | 0.48
CPED1 | -1.02
CPED1 | -1.2
CPED1 | -1.06
CPED1 | -0.81
FANCC | -0.72
FANCC | -0.19
FANCC | 0.25
FANCC | -0.63
MCU | -0.32
MCU | 0.32
MCU | 0.12
MCU | 0.04
KCND3 | -0.19
KCND3 | 0.79
KCND3 | -0.74
KCND3 | 0.03
ALDH3B1 | -0.62
ALDH3B1 | 0.29
ALDH3B1 | 0.53
ALDH3B1 | 0.32
SOX8 | 0.66
SOX8 | 0.23
SOX8 | -0.67
SOX8 | -1.28
PRKD3 | 2.14
PRKD3 | 1.13
PRKD3 | -0.14
PRKD3 | 2.55
CYTL1 | -0.53
CYTL1 | -0.14
CYTL1 | -0.17
CYTL1 | -0.43
GNGT1 | 1.75
GNGT1 | 1.74
GNGT1 | 0.95
GNGT1 | 0.69
RBM19 | -0.06
RBM19 | -0.11
RBM19 | -0.58
RBM19 | 0.62
SCAMP1 | 3.1 (active)
SCAMP1 | 1.19
SCAMP1 | 2.87 (active)
SCAMP1 | 3.7 (active)
PIGN | -0.63
PIGN | -0.87
PIGN | -0.83
PIGN | -0.64
PNISR | -0.79
PNISR | -1.14
PNISR | -0.86
PNISR | -0.05
H2AC16 | 1.17
H2AC16 | -0.53
H2AC16 | 0.08
H2AC16 | 0.09
TLR10 | 0.18
TLR10 | 0.86
TLR10 | 0.53
TLR10 | 0.11
NCDN | 1.69
NCDN | 1.84
NCDN | 1.07
KBTBD6 | 2.5
KBTBD6 | 1.97
KBTBD6 | 3.52 (active)
KBTBD6 | 1.62
CYP19A1 | -1.46
CYP19A1 | -0.48
CYP19A1 | -0.13
CYP19A1 | -1.22
XDH | 0.44
XDH | -0.17
XDH | 0.42
XDH | 0.83
CCDC60 | -0.81
CCDC60 | -0.41
CCDC60 | -0.5
CCDC60 | -0.6
